# The whole screen tested about 140,000 compounds, of which about 4,300 (3.1%) were called active. This list was built around the results that the source calls inconclusive (neither active nor inactive); the mix of calls is not that of the screen.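 The calls were made as follows: active = readout at or below -70, meaning at least 70% loss of cells showing the perinucleolar compartment, a nuclear body marking cancer cells; inconclusive = readout between -30 and a set limit; inactive = the rest.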
# Test: High Content Assay for Compounds that inhibit the Assembly of the Perinucleolar Compartment;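 also: plate controls were DMSO wells for no effect and camptothecin positive control wells for full effect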
# Details: PC3M PTB-GFP, PNC prevalence imaging, 16 h; at 10 µM; stronger effect = lower value
# Summary of the method: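 Read-out is percentage of cells bearing a perinucleolar compartment, from automated 20x imaging of fixed, Hoechst-stained PC3M PTB-GFP cells. Cells were seeded 4 h, then exposed 16 h to compound (23 nl of library stock) in duplicate plates.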
row,Compound,"activity change (PNC), negative = inhibition"
1,CCCCn1c2nc3ccccc3nc2c2c(=O)n(C(C)CC)cnc21 (stereo not given),inconclusive: -50.9%
2,COc1ccc(OC)c(S(=O)(=O)N2C(C)CCCC2C)c1 (stereo not given),inconclusive: -31%
3,Cc1ccc(C(=O)Nc2ccc3c(c2)OCO3)o1,inactive: -21%
4,Cc1cccc(N2C(=N)SCC2=O)c1C,inactive: -0.513%
5,CCn1c(SCC(=O)Nc2ccc(C(=O)OC)cc2)nnc1-c1cccs1,inconclusive: -44.1%
6,CC(=O)c1cccc(NC(=O)Cc2coc3cc4c(cc23)CCC4)c1,inactive: 38.3%
7,COc1ccc(NC(=S)NNC(=O)c2ccccc2OC(F)F)cc1,inconclusive: -64.1%
8,CCCCSc1nc(O)c(C2OC(=O)c3c2ccc(OC)c3OC)c(=O)n1C (stereo not given),inactive: -2.53%
9,COc1cccc(NC(=O)NC2(C(F)(F)F)Oc3ccccc3O2)c1,inconclusive: -32.5%
10,CCN(CC)CCCNC(=O)N[C@@H](Cc1ccccc1)C(=O)O,inconclusive: -43.4%
11,O=C(COC(=O)C1CC(=O)N(C2CCCCC2)C1)c1ccc(F)cc1 (stereo not given),inactive: -4.46%
12,CN(C(=O)COc1ccccc1C(=O)NCCc1ccccc1)c1ccccc1,active: -99.9%
13,CC(/C=N/NC(=O)CSc1nc(C)cc(C)n1)=C\c1ccccc1,inconclusive: -49.3%
14,COc1ccc(-c2csc(Nc3ncccc3C)n2)cc1OC,inconclusive: -52.2%
15,O=C1C=C(O)CC(c2cccs2)C1 (stereo not given),inconclusive: -47%
16,Clc1nc(-c2ccccc2)cc(-c2ccccc2)n1,inconclusive: -70.1%
17,CCc1ccc(N(C(=O)Cn2nnc(-c3ccccc3)n2)C(C(=O)NC2CCCCC2)c2ccccn2)cc1 (stereo not given),inactive: 18.3%
18,O=C(/C=C1\SC(=O)N(CC(=O)Nc2ccc(F)cc2)C1=O)Nc1ccc(Cl)cc1,inconclusive: -36%
19,CCN(CC)S(=O)(=O)c1ccc(-c2nnc(SCC(=O)Nc3ccc(OC)c(OC)c3)o2)cc1,inconclusive: -32.2%
20,Cc1cc(C(=O)Nc2sc3c(c2C#N)CCC3)no1,active: -85.4%
21,Cc1ccc(S(=O)(=O)Nc2cccc3c2CCCC3)cc1,inconclusive: -47.6%
22,O=C(N/N=C\c1ccccc1OCc1ccccc1)c1ccco1,inconclusive: -46%
23,COc1ccc(N2C3=[N+](CCCC3)CC2(C)O)cc1 (stereo not given),inconclusive: -43.4%

# In another format: entries from further up
row | Compound | activity change (PNC), negative = inhibition
5 | CCn1c(SCC(=O)Nc2ccc(C(=O)OC)cc2)nnc1-c1cccs1 | inconclusive: -44.1%
10 | CCN(CC)CCCNC(=O)N[C@@H](Cc1ccccc1)C(=O)O | inconclusive: -43.4%
17 | CCc1ccc(N(C(=O)Cn2nnc(-c3ccccc3)n2)C(C(=O)NC2CCCCC2)c2ccccn2)cc1 (stereo not given) | inactive: 18.3%
19 | CCN(CC)S(=O)(=O)c1ccc(-c2nnc(SCC(=O)Nc3ccc(OC)c(OC)c3)o2)cc1 | inconclusive: -32.2%
21 | Cc1ccc(S(=O)(=O)Nc2cccc3c2CCCC3)cc1 | inconclusive: -47.6%

# (more compounds)

row,Compound,"activity change (PNC), negative = inhibition"
1,CC(C)(C#CCN1CCCCC1)OCCOC(c1ccccc1)c1ccccc1,inconclusive: -43.1%
2,CCCCN1CNC(=S)N(c2ccccc2OCC)C1,inconclusive: -33.5%
3,COc1ccc(-c2cc(C(F)(F)F)n3nc(C(=O)N4CCOCC4)c(Cl)c3n2)cc1,active: -106%
4,Cc1ccc(S(=O)(=O)Nc2cc(C)nn2-c2ccccc2)cc1,inactive: -9.92%
5,Cc1occc1-c1nnc(SCC(=O)c2ccc(F)cc2)o1,inconclusive: -35.9%
6,COc1cccc2cc(C(=O)N3CCN(C(=O)c4ccccc4)CC3)c(=O)oc12,inconclusive: -35.3%
7,O=C(Nc1ccccc1C(=O)N1CCOCC1)c1cccc(S(=O)(=O)N2CCCC2)c1,active: -89.5%
8,COc1ccc(-n2c(=O)c3c4c(sc3n3c(=S)[nH]nc23)CCCC4)cc1,inconclusive: -73.5%
9,CCCN(C(=O)CSc1nnc(-c2ccoc2C)n1N)C1CCS(=O)(=O)C1 (stereo not given),inconclusive: -45.1%
10,CC1CCN(C(=O)c2cc(-c3ccccc3O)on2)CC1,inconclusive: -49.5%
11,CCc1ccc2nc3sc(C(=O)N4CCc5ccccc54)c(N)c3cc2c1,inactive: 39%
12,CCOC(=O)c1cc(C)sc1/N=C/C1=C(O)CCCC1=O,inactive: -28.5%
13,COc1ccccc1/C=C/C=N/NC(=O)CCC1C(=O)NN=C1C (stereo not given),inconclusive: -46%
14,Cc1nn(Cc2ccc(Cl)cc2Cl)c(C)c1NC(=O)CCl,inactive: -9.05%
15,C=CCNC(=O)/C(=C\C=C\c1ccccc1)NC(=O)c1ccc(OCCCC)cc1,active: -105%
16,COc1ccc(OC)c(NC(=O)Cn2cc(C#N)c3ccccc32)c1,inconclusive: -48.9%
17,COc1ccc(-c2noc(CSc3nc(-c4ccccc4)cc(=O)[nH]3)n2)cc1,inconclusive: -55.1%
18,Cc1ccc(S(=O)(=O)Nc2ccccc2C(=O)Nc2nc(-c3ccc(F)cc3)cs2)cc1,inactive: 50.7%
19,CCN1C(=O)/C(=C\N2CCN(c3ccc(F)cc3)CC2)SC1=S,inconclusive: -30.9%
20,CCOC(=O)CN1C(=O)C(O)(c2c(C)[nH]c3ccccc23)c2ccccc21 (stereo not given),inactive: -14.9%
21,Cn1c(NCc2ccccc2)cc(=O)n(C)c1=O,inconclusive: -63.8%
22,CN1C(=O)NC(NC(=O)c2ccco2)(C(F)(F)F)C1=O (stereo not given),inconclusive: -64.5%
23,O=C(Oc1cccnc1)c1cccc(Cl)c1,inactive: 44.5%

row,Compound,"activity change (PNC), negative = inhibition"
1,CCC(C(=O)Nc1ccccc1)c1ccccc1 (stereo not given),inactive: 84.3%
2,c1ccc2c(-c3nc(C4CCCCC4)no3)cc(-c3ccncc3)nc2c1,inconclusive: -37.3%
3,CCOc1cc(C2C(C(=O)N3CCOCC3)=C(C)NC3=C2C(=O)CCC3)ccc1O (stereo not given),inconclusive: -30%
4,O=C(Nc1ccccc1-c1nnc(SCc2ccc(Cl)cc2Cl)o1)c1ccccc1,inconclusive: -36.8%
5,CCOC(=O)C1CCN(C(=O)COC(=O)c2ccc(Br)o2)CC1,inconclusive: -52%
6,CCOC(=O)c1ccc(CC(=O)c2oc3cc(O)ccc3c2C)o1,inactive: 15.7%
7,CCOc1cc(/C=C2\CCC/C(=C\c3cc(Cl)c(O)c(OCC)c3)C2=O)cc(Cl)c1O,inactive: 27.8%
8,Cc1cccc(-n2c(SCN3C(=O)c4ccccc4C3=O)nc3ccccc3c2=O)c1,inconclusive: -61.9%
9,CC1(C)CC1C(=O)Nc1ccc([N+](=O)[O-])cc1Br (stereo not given),inactive: -24.1%
10,CC[n+]1c(/C=C(/C)SC)sc2ccccc21,inactive: -18.3%
11,Cc1cccc(NC(=O)CN2C(=O)NC(C)(c3ccc4c(c3)OCO4)C2=O)c1 (stereo not given),inconclusive: -55.6%
12,COc1ccc(NC(=O)CSc2nc3ccccc3c(=O)n2-c2ccc3c(c2)OCO3)c(OC)c1,inconclusive: -48.1%
13,C=CCNC(=S)NNC(=O)c1cccn(Cc2ccc(Cl)c(Cl)c2)c1=O,inconclusive: -56%
14,CCCCN(CCCC)S(=O)(=O)c1ccc(C(=O)Nc2nnc(CSC)o2)cc1,inactive: 0.602%
15,Cc1cc(C)nc(SCC(=O)NC2=NC(=O)C(C)S2)n1 (stereo not given),inconclusive: -44.6%
16,CCOC(=O)C1=C(C)NC2=C(C(=O)CC(c3ccc(OC)c(OC)c3)C2)C1c1ccc(C)o1 (stereo not given),inconclusive: -41.6%
17,CSc1cccc(NC(=O)CN(c2cccc(C)c2)S(C)(=O)=O)c1,inconclusive: -40.8%
18,COC(=O)c1ccc(NC(=O)CCN2CCN(Cc3ccccc3)CC2)cc1,inconclusive: -39.4%
19,OCCN(Cc1ccccc1)Cc1ccc(F)c(F)c1,inconclusive: -57.5%
20,COc1ccc(C(=O)/C=C/c2ccc(C)cc2)c(OC(=O)c2ccc([N+](=O)[O-])cc2)c1,inconclusive: -46.5%
21,CCOC(=O)/C(=N\Nc1ccc(Cl)cc1)Sc1nnc(-c2ccc(OC)cc2)n1C,inconclusive: -40%
22,OCCNCCCCCOc1ccc(F)cc1,inconclusive: -33.2%
23,N#C/C(=C\c1cn(Cc2ccc(C#N)cc2)c2ccccc12)C(=O)NCc1cccs1,active: -116%

row,Compound,"activity change (PNC), negative = inhibition"
1,Cc1noc(C)c1C(=O)OCC(=O)c1c[nH]c2ccccc12,inactive: -13.7%
2,CCCC(=O)Nc1ccc(N2CCN(C(=O)CCC)CC2)cc1,inconclusive: -41.1%
3,CCOC(=O)C1CCCN(CC(=O)Nc2c(C(=O)OC)[nH]c3ccc(Cl)cc23)C1 (stereo not given),inconclusive: -73.8%
4,Cc1n[nH]c(C)c1S(=O)(=O)N(CC(=O)Nc1ccc2c(c1)OCCO2)c1ccc(C(C)C)cc1,inactive: -7.61%
5,Cc1cc(Cl)ccc1OCC(=O)NC1CCCC1,inactive: 5.76%
6,COCCCNc1c2c3c(cccc3[nH]c1=O)C(=O)c1ccccc1-2,inconclusive: -38.7%
7,COc1cc2[nH]cc(C(=O)NCCc3ccccc3)c(=O)c2cc1OC,active: -100%
8,Cc1ccc(S(=O)(=O)NCCC(=O)N2CCCCC2)cc1,inconclusive: -77.1%
9,COc1ccc(C(=O)c2c[nH]c(C(=O)NCc3ccco3)c2)cc1,inactive: -16.2%
10,CCCc1cc(=O)[nH]c(SCC(=O)NC(=O)OCC)n1,inconclusive: -55.7%
11,CCCCN(C)C(=O)c1coc(=O)c2ccccc12,inactive: -0.26%
12,COc1ccc(-c2nn3c(-c4ccc(F)cc4)nnc3s2)cc1,inactive: 33.8%
13,CC1CCN(C(=O)c2cc(F)c(F)cc2Cl)CC1,active: -100%
14,Cc1cc(C(=O)NCC(=O)OCC(=O)Nc2ccc(OC(F)F)cc2)ccc1[N+](=O)[O-],inactive: -6.6%
15,Cc1ccc(C(=O)Nc2ccc(S(=O)(=O)N3CCN(C)CC3)cc2)o1,inconclusive: -39.3%
16,Cc1ccc(C)c2nc3sc(C(=O)N4CCCc5ccccc54)c(N)c3cc12,inconclusive: -52.3%
17,CCCCN(CCCNC(=O)C1CCN(S(=O)(=O)N2CCOCC2)CC1)Cc1ccccc1,inactive: -2.33%
18,CCOC(=O)CN1C(=O)COc2ccc(C(C)(C)C)cc21,inconclusive: -42.5%
19,COc1ccccc1-c1nn2c(-c3ccco3)nnc2s1,inactive: -12.6%
20,COC(=O)c1cc(OC)c(OC)cc1NC(=O)c1ccoc1C,inconclusive: -51.5%
21,CS/C(=N\S(=O)(=O)c1ccc(N)cc1)NS(=O)(=O)c1cccs1,inconclusive: -64%

# From PubChem BioAssay AID2417 (National Center for Advancing Translational Sciences (NCATS), 2010)
